Results are given in words; binding and its absence hold for the method and conditions named. In cells and extracts the contact can be indirect. Some results given as binding are weak or reduced against the parent protein; the word gives no strength.
Target: T1, Toll-like receptor 13 (mouse (endogenous in C2C12)) (UniProt Q6R5N8)
T1 sequence: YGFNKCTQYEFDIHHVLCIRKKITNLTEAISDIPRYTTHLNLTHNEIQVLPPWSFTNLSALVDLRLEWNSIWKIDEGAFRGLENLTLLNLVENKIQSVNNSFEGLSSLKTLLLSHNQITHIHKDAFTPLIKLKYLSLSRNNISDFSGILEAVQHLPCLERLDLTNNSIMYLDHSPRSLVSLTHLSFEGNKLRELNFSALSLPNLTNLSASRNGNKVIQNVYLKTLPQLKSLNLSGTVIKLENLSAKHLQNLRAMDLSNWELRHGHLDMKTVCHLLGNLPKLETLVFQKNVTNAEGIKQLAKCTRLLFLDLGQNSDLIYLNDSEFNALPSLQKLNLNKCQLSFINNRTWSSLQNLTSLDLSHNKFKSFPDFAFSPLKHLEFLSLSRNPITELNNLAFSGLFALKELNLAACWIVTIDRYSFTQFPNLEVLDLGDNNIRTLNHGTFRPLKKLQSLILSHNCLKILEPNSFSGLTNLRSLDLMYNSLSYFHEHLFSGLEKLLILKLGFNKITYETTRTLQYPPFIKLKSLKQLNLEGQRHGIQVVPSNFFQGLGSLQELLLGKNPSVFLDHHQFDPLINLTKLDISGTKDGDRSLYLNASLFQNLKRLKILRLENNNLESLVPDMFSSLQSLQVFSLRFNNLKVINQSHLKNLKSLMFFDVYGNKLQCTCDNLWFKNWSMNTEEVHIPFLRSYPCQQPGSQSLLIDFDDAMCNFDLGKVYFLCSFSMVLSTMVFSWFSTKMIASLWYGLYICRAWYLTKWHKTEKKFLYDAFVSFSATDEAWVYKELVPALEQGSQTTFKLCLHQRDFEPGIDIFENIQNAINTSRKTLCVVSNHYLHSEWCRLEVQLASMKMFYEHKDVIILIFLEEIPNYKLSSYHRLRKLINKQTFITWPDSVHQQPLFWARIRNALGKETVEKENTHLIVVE
Experiment: co-IP; 4 ug anti-TLR13 or anti-IRF3 antibody added to C2C12 lysates, overnight at 4°C with phosphatase and protease inhibitors; Protein A/G Plus beads 2 h; western blotting

binding: binds
B1: Interferon regulatory factor 3 (protein, UniProt P70671 1-419)
chain: METPKPRILPWLVSQLDLGQLEGVAWLDESRTRFRIPWKHGLRQDAQMADFGIFQAWAEASGAYTPGKDKPDVSTWKRNFRSALNRKEVLRLAADNSKDPYDPHKVYEFVTPGARDFVHLGASPDTNGKSSLPHSQENLPKLFDGLILGPLKDEGSSDLAIVSDPSQQLPSPNVNNFLNPAPQENPLKQLLAEEQWEFEVTAFYRGRQVFQQTLFCPGGLRLVGSTADMTLPWQPVTLPDPEGFLTDKLVKEYVGQVLKGLGNGLALWQAGQCLWAQRLGHSHAFWALGEELLPDSGRGPDGEVHKDKDGAVFDLRPFVADLIAFMEGSGHSPRYTLWFCMGEMWPQDQPWVKRLVMVKVVPTCLKELLEMAREGGASSLKTVDLHISNSQPISLTSDQYKAYLQDLVEDMDFQATGNI

Reference: paper PMC8891551
